This is an account of results in PubChem BioAssay AID1487 (National Center for Advancing Translational Sciences (NCATS), 2009).

A short description of the assay: qHTS Assay for Modulators of Lamin A Splicing. To be noted: HeLa LMNA splicing GFP/RFP minigene ratio, 48 h. In outline: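 S3 HeLa stable clones carrying a lamin A-EGFP splicing minigene plus DsRed2 were seeded at 600 cells/well in Opti-MEM with 2% FBS, pin-dosed and incubated 48 h at 37°C. Acumen cytometry (488 nm) gave the GFP/RFP total-intensity ratio.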
The mark [1] stands for this setting: measured here: RFP viability control channel.
Setting [2] is: measured here: GFP splicing reporter channel.

This is one part of the list. The main result of the screen is listed elsewhere. These columns were measured beside it and carry no call. Most of these compounds were active or inconclusive in the main read-out, so they are no random draw. The note in brackets gives the kind of curve behind each potency; many fits are weak.

In the case of `COc1ccc2[nH]c3c(=O)n(/N=C/[C@H]4C(C)C=C(C)CC4C)c(=O)[nH]c3c2c1` (some centres not stated), the AC50 under setting [1] is 35.5 µM [falling, single point]. On to `Cc1ccc(C)c(NC(=O)c2oc(=O)c3ccccc3c2-c2ccccc2)c1`, for which the AC50 under setting [1] was 35.5 µM [rising, single point].

With `Cc1nn(Cc2cccc(C(=O)NCC(C)C)c2)c(C)c1Br`, the AC50 under setting [1] was 17.8 µM [rising, single point].

Regarding `CCn1cc(C(=O)N2CC=C(c3ccccc3)CC2)c(=O)c2ccc(C)nc21`, the AC50 runs as follows: under setting [2], 35.5 µM [rising, single point]; under setting [1], 35.5 µM [rising, single point].

Take `CC(C)OC(=O)c1cc2ccccc2[nH]1`: under setting [1], the AC50 is 15.8 µM [rising, single point]. On the same count and under the same terms, to `Fc1ccccc1N1CCN(Cc2cnc(Cl)s2)CC1` belongs 14.1 µM [falling, partial curve, poor fit]; to `O=C(NC1C=CS(=O)(=O)C1)c1ccccc1` (configuration not stated), 0.178 µM [falling, full curve, poor fit]. As for `CC(=O)Nc1ccc(S(=O)(=O)NCc2ccc(C(=O)NCCN3CCCCCC3)cc2)cc1`, the AC50 under setting [2] was 0.141 µM [rising, full curve, poor fit]. As to `C/C(=N/O)c1ccc2c(c1)OCCOCCOc1cc(/C(C)=N/O)ccc1OCCOCCO2`, the AC50 under setting [1] was 11.2 µM [rising, partial curve, poor fit]. Consider `O=S(=O)(Cc1ccccc1)/C1=C(\N2CCOCC2)CCCCCC1`, for which the AC50 by setting is: under setting [2], 5.62 µM [rising, partial curve, poor fit]; under setting [1], 10 µM [rising, partial curve, poor fit].

`COc1ccccc1NC(=O)c1cc2cc3ccc(OC)c(Cl)c3nc2s1`: the AC50 under setting [1] was 17.8 µM [falling, single point]. As to `CC1(OC(=O)C2CCCC2)C(=O)C=C2C=C(c3ccsc3)N(CCc3c[nH]c4ccccc34)C=C2C1=O` (configuration not stated), the AC50 under setting [2] was 0.000794 µM [rising, full curve, poor fit]. `O=C(COC(=O)CCSc1ccccc1)NCc1ccccc1`: under setting [1], the concentration at half-maximal activity (AC50) was 17.8 µM [falling, partial curve, poor fit].

Regarding `COC(=O)Nc1ccc(S(=O)(=O)N2c3ccccc3CCC2C)cc1` (configuration not stated), the AC50 was 12.6 µM [rising, partial curve] under setting [2] and 7.08 µM [rising, partial curve] under setting [1].

Turning to `COc1ccc2cc3cc(C(=O)NCc4ccco4)oc3nc2c1`, the concentration at half-maximal activity (AC50) is 22.4 µM [rising, single point] under setting [2] and 35.5 µM [rising, single point] under setting [1]. As to `CC(C)(C)NC(=O)c1ccccc1-c1nc(-c2ccccc2Cl)no1`, the AC50 under setting [2] is 35.5 µM [rising, single point]. For `COc1ccc2ncc3c(-c4ccc(C)c(C)c4)nn(CC(=O)Nc4ccccc4)c3c2c1`, the AC50 runs as follows: under setting [2], 0.1 µM [falling, full curve, poor fit]; under setting [1], 3.55 µM [falling, partial curve]. For the compound `O=S(=O)(Nc1ccc(-n2cccc2)cc1)c1ccc(Cl)cc1Cl`, the AC50 under setting [1] is 22.4 µM [rising, single point]. Regarding `COc1cc(C(=O)NC(=S)NNC(=O)c2cnccn2)cc(OC)c1OC`, the AC50 is 22.4 µM [rising, single point] under setting [2] and 35.5 µM [rising, single point] under setting [1]. As to `COC(=O)c1c(NC(=O)C2COc3ccccc3O2)sc2c1CCN(C(C)=O)C2` (configuration not stated), the AC50 under setting [1] was 12.6 µM [rising, partial curve]. Same read-out and setting: to `Cc1ccc(NC(=O)CS(=O)CC(=O)N(C(C)C(=O)NC2CCCCC2)C(C)(C)C)cc1` (configuration not stated) belongs 0.00447 µM [rising, full curve, poor fit]. For the compound `Cc1onc(-c2ccccc2)c1C(=O)N/N=C/c1ccc([N+](=O)[O-])s1`, the AC50 reads like this: under setting [2], 14.1 µM [rising, partial curve]; under setting [1], 25.1 µM [rising, single point]. As to `CCOP(=O)(OCC)C(NC(=O)c1cccs1)C(F)(F)F` (configuration not stated), the AC50 under setting [1] was 1 µM [rising, partial curve, poor fit]. In the case of `COc1ccc(N2CCN(c3ccc(N4C(=O)COCC4=O)cc3[N+](=O)[O-])CC2)cc1`, the AC50 under setting [1] is 22.4 µM [rising, single point]. For the compound `Cc1ccc(-n2ncc(N(C)C)c(Cl)c2=O)cc1`, the AC50 under setting [1] was 3.16 µM [rising, single point]. In the case of `CCOC(=O)CNC(=O)c1cnn2cccnc12`, the AC50 reads like this: under setting [2], 0.0447 µM [rising, full curve, poor fit]; under setting [1], 0.0398 µM [rising, partial curve].

Regarding `CC(/C=N/Nc1nc2ccccc2[nH]1)=C\c1ccccc1`, the AC50 under setting [1] was 0.00501 µM [rising, full curve, poor fit].

As to `COc1ccc(-c2nc3cnc(N4CCOCC4)nc3n(Cc3cccs3)c2=O)cc1`, the AC50 under setting [2] was 35.5 µM [falling, single point] and the AC50 under setting [1] was 35.5 µM [falling, single point]. As to `Cc1ccc(C(C)n2cc(C(=O)NCc3ccncc3)nn2)cc1` (configuration not stated), the AC50 by setting is: under setting [2], 3.98 µM [rising, partial curve]; under setting [1], 10 µM [rising, partial curve, poor fit]. With `COc1ccc(C(C)=O)cc1CSc1nc(NCc2ccccc2)c2ccccc2n1`, the AC50 under setting [2] was 20 µM [rising, single point]. Regarding `CC(C)(C)CC(C)(C)c1ccc(OCOCCOCCO)c(Cc2cc(C(C)(C)CC(C)(C)C)cc(Cc3cc(C(C)(C)CC(C)(C)C)ccc3OCOCCOCCO)c2OCOCCOCCO)c1`, the AC50 was 0.316 µM [falling, single point] under setting [2] and 0.251 µM [falling, full curve] under setting [1].

Turning to `c1csc(C2=Nn3c(nnc3-c3ccncc3)SC2)c1`, the AC50 under setting [1] is 1.78 µM [falling, partial curve]. For the compound `COc1cc(N=Nc2cccc(S(N)(=O)=O)c2)c2ccccc2c1N`, the AC50 under setting [2] was 1.12 µM [falling, full curve]. Turning to `COc1ccc2nc(-n3c(O)c(C4=c5ccccc5=NC4=O)[nH]c3=S)sc2c1`, under setting [1], the AC50 is 14.1 µM [rising, partial curve, poor fit].

With `COCCN(C(=O)CNC(=O)c1cccs1)C(C(=O)NC1CCCCC1)c1ccco1` (configuration not stated), the AC50 under setting [2] was 35.5 µM [rising, single point]. Turning to `Cc1ccc(/C=C/C(=O)Nc2nccs2)o1`, the half-maximal activity concentration (AC50) is, setting by setting: under setting [2], 7.94 µM [rising, partial curve, poor fit]; under setting [1], 4.47 µM [rising, partial curve, poor fit]. For `Cc1oc(/N=C/c2ccccc2O)c(C#N)c1C`, the AC50 under setting [2] was 0.178 µM [rising, partial curve, poor fit]. Consider `N#Cc1cc2ccccc2nc1SCC(=O)Nc1ccc(S(=O)(=O)N2CCCC2)cc1`, for which the AC50 runs as follows: under setting [2], 14.1 µM [rising, single point]; under setting [1], 15.8 µM [rising, single point].

For the compound `Clc1ccc2[nH]c3c(NCCCN4CCOCC4)ncnc3c2c1`, the AC50 under setting [1] is 7.08 µM [rising, partial curve].

For `CC1(C)CC(N=Cc2c(O)n(Cc3ccc4c(c3)OCO4)c(=O)c3ccccc23)CC(C)(C)N1`, the AC50 under setting [2] was 35.5 µM [falling, single point]. Turning to `COc1ccc(NC(=O)CSCc2cc(=O)c3cc(Cl)ccc3[nH]2)cc1`, the AC50 under setting [1] was 0.501 µM [rising, partial curve, poor fit]. Still for that read-out and setting: to `Cn1c(N2CCOCC2)nc2c1c(=O)n(Cc1ccc(Cl)c(Cl)c1)c(=O)n2C` belongs 14.1 µM [rising, single point].

In the case of `CCOc1ccccc1NC(=O)CSc1nnc(-c2ccco2)n1Cc1ccco1`, the AC50 under setting [2] was 15.8 µM [rising, single point]. As to `O=C(CCN1Cc2ccccc2C1)c1ccc2c(c1)OCCO2`, the AC50 by setting is: under setting [2], 12.6 µM [rising, single point]; under setting [1], 2 µM [falling, partial curve, poor fit]. For the compound `COC(=O)C1=C(C(=O)OC)[C@@H]2N(Cc3ccccc3)c3ccccc3[C@@]23C[C@@H](C(=O)OC)N(C(=O)CC(C)C)C3=N1`, under setting [1], the AC50 was 0.0794 µM [falling, full curve, poor fit]. On to `CN(Cc1ccc(-n2cccn2)cc1)C(=O)c1cnn2c1NC(c1ccco1)CC2C(F)(F)F` (configuration not stated), for which the AC50 under setting [1] is 22.4 µM [rising, single point].

For `O=[N+]([O-])c1cc(/C=N/N/C(=N/c2ccccn2)c2ccccn2)ccc1O`, under setting [1], the AC50 was 7.08 µM [rising, partial curve]. In the case of `O=S(=O)(Nc1ccc(N2CCCCC2)cc1)c1cccs1`, the AC50 is 10 µM [rising, partial curve] under setting [2] and 12.6 µM [rising, single point] under setting [1]. On to `Cc1c(NS(=O)(=O)c2ccc3c(c2)OCCO3)cccc1-c1nc2cccnc2s1`, for which the AC50 reads like this: under setting [2], 1.58 µM [rising, full curve, poor fit]; under setting [1], 3.16 µM [rising, full curve]. Consider `CCOC(=O)C1C(=O)C=C(c2ccc(OC)cc2)CC1c1ccco1` (configuration not stated), for which, under setting [1], the AC50 was 17.8 µM [rising, partial curve, poor fit]. As to `CCOc1ccc(S(=O)(=O)NCc2cccn2Cc2cccc(C)c2)cc1`, the AC50 under setting [1] is 10 µM [rising, partial curve, poor fit]. As for `CCOC(=O)c1cc(-c2ccccc2)n(-c2cccc(C(=O)NC(C)(C)C)c2)c1C`, under setting [1], the AC50 is 8.91 µM [falling, partial curve, poor fit]. In the case of `CCOc1ccc(NS(=O)(=O)c2cnc(Cl)c(Cl)c2)cc1`, the AC50 was 35.5 µM [rising, single point] under setting [2] and 35.5 µM [rising, single point] under setting [1]. Take `COc1cc(NC(=O)c2cccc(COCC(F)(F)C(F)F)c2)cc(OC)c1OC`: the AC50 under setting [1] was 11.2 µM [rising, partial curve, poor fit]. With `COc1cccc(Cn2c(=O)c(-c3cccs3)nc3cncnc32)c1`, under setting [2], the AC50 was 12.6 µM [falling, partial curve].

As a reminder, the AC50 is the midpoint of the concentration-response curve, whichever way the signal moves.
